Results as given in PubChem BioAssay AID1259415 (National Center for Advancing Translational Sciences (NCATS), 2018).
In all, about 410,000 compounds went through this assay and about 18,000 (4.4%) were called active. The shares of active, inactive and inconclusive entries below differ from those in the screen. Cut-off read from the data, not from the text of the source: active = activity change below about -60%; inconclusive = no clear call, values can overlap the other calls; inactive = above about -39%.

test: qHTS Assay for inhibitors of the human cytomegalovirus (HCMV); conditions: HFF cells, HCMV-luciferase reporter, 72 h; at 57.5 µM; active compounds read low
In short: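 Cell-based, HFFs, 1000 cells/well, 16 h 37C; cpds in DMSO + HCMV-luc, MOI 1 PFU/cell; 72 h 37C; OneGlo luminescence after 5 min RT; norm. to buffer vs Salinomycin 10uM.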
% is set by controls: 0 for no effect and ±100 for the full control effect.

| Structure (SMILES) | activity change, negative = inhibition |
| --- | --- |
| CC(=O)N1CCN(CCN=CC2=C(O)CC(c3cccs3)CC2=O)CC1 (stereo not drawn) | inconclusive: -50.3% |
| O=C1N(Cc2ccccc2Cl)c2ccccc2C1(O)c1c[nH]c2ccccc12 (stereo not drawn) | active: -93.9% |
| CC1=C(C(=O)OCC2CCCCC2)C(c2ccc(Cl)cc2)CC(=O)N1 (stereo not drawn) | inconclusive: -49.1% |
| COc1cc(CN2CCN(S(=O)(=O)c3ccc(NC(C)=O)cc3)CC2)cc(OC)c1OC | active: -106% |
| Cc1ccc(C)c(N(CC(=O)Nc2ccc(-c3nc4ccc(C)cc4s3)cc2)S(C)(=O)=O)c1 | inactive: 8.96% |
| COC(=O)CNC(=O)c1sc2ncn(CC(=O)Nc3ccc(C)c(Cl)c3)c(=O)c2c1C | inconclusive: -41.7% |
| O=C(COC(=O)c1ccccc1NC(=O)c1ccco1)Nc1ccc2c(c1)OCO2 | inconclusive: -57.1% |
| CN1CCC(=O)N([C@H](CSc2ccc(Br)cc2)Cc2ccccc2)CC1 | inactive: -9.42% |
| CC(=O)N(CN1C(=O)c2ccc([N+](=O)[O-])cc2C1=O)c1cccc(C(=O)O)c1 | inactive: -11.4% |
| C[C@H](CO)N1C[C@H](C)[C@@H](CN(C)S(=O)(=O)c2cccs2)Oc2c(NC(=O)CCC(F)(F)F)cccc2C1=O | inactive: -12% |
| CC(C)CNC(=S)N1CCC(c2nc(-c3ccc(F)cc3)no2)CC1 | inconclusive: -43.3% |
| COc1ccccc1OCc1cc(C(=O)NCc2ccc(N3CCCC3=O)cc2)no1 | inactive: -28.2% |
| O=C(CSC1=NCCS1)c1ccc(Cl)cc1 | inactive: 41.9% |
| CSCC[C@H](NC(=O)c1ccc(OCC2CCCO2)cc1)c1nc2ccccc2[nH]1 (stereo partly drawn) | inactive: -21.3% |
| O=C(COc1ccccc1)NNC(=O)COc1ccc([N+](=O)[O-])cc1 | inconclusive: -44.4% |
| Cn1c(CNC(=O)Nc2cccc(Cl)c2)nnc1SCc1ccccc1 | inactive: 32.2% |
| Fc1ccc(Sc2ccccc2CNC2=NCCN2)cc1 | inconclusive: -40.9% |
| Cc1ccccc1NC(=S)Nc1cccc([N+](=O)[O-])c1 | inconclusive: -43.7% |
| CSCCC(c1nnnn1C1CCCC1)N1CCC(n2c(=O)[nH]c3ccccc32)CC1 (stereo not drawn) | inconclusive: -52.4% |
| O=C(CSc1ncnc2ccccc12)NC1CCS(=O)(=O)C1 (stereo not drawn) | inconclusive: -50.6% |
| COc1cccc(NC(=O)CC(=O)Nc2ccc3nc4n(c(=O)c3c2)CCCCC4)c1 | active: -72.4% |
| Cn1cc(S(=O)(=O)N2CCOCC2)cc1C(=O)O | inconclusive: -53.6% |
| COc1cc(OC)cc(N2C(=O)N(Cc3ccc(C(C)(C)C)cc3)c3ccccc3S2(=O)=O)c1 | inconclusive: -59.1% |
| COc1cc(/C=C/C(=O)O)cc(S(=O)(=O)Nc2ccc3nc(C)sc3c2)c1OC | inconclusive: -44.4% |
| C[C@H](CO)N1C[C@H](C)[C@@H](CN(C)S(=O)(=O)c2cccs2)Oc2c(NS(=O)(=O)c3cn(C)cn3)cccc2C1=O | inconclusive: -43.8% |
| COc1cc([N+](=O)[O-])ccc1NC(=O)CC1SC(=Nc2ccc(F)cc2)N(CCC2=CCCCC2)C1=O (stereo not drawn) | active: -98.7% |
| O=C(NCCC1=CCCCC1)c1cc(-c2ccncc2)nc2ccccc12 | inconclusive: -46% |

| Structure (SMILES) | activity change, negative = inhibition |
| --- | --- |
| CCN(CC)c1ccc(/C=N/NC(=O)CNC(=O)C2COc3ccccc3O2)c(O)c1 (stereo not drawn) | active: -96.9% |
| CSc1nnc2c3ccccc3n(CCc3ccccc3)c2n1 | active: -98.1% |
| COc1ccccc1C1N(c2cc(Cl)ccc2OC)C(=O)C2CCCN21 (stereo not drawn) | inactive: -3% |
| COc1ccc2ncc(S(=O)(=O)c3ccccc3)c(N3CCN(c4ccccc4)CC3)c2c1 | active: -67.7% |
| COCCNC(=O)C(c1ccc(C)o1)N(CCOC)C(=O)Cn1nnc2ccccc21 (stereo not drawn) | inconclusive: -46.1% |
| CCOC(=O)c1cccc(NC(=O)Nc2ccc3c(c2)C(=O)OC3)c1 | inconclusive: -58.4% |
| CCOC(=O)C1=C(C)N=c2s/c(=C\c3ccc(C(=O)O)cc3)c(=O)n2C1c1ccc(OC)cc1OC (stereo not drawn) | inactive: 2.82% |
| CC(C)NC(=O)c1ccc(-n2c(=S)[nH]c3ccccc3c2=O)cc1 | active: -84% |
| Cc1cc(Cl)ccc1OCC(=O)Nc1ccccc1N1CCOCC1 | inconclusive: -50% |
| O=C(Nc1ccc2c(c1)OCO2)c1nn(-c2ccccc2)c(=O)c2ccccc12 | inconclusive: -58.9% |
| C/C=C/C(=O)N1c2ccc(C)cc2C(C)=CC1(C)C | inactive: -12.2% |
| CCCCNC(=O)CSc1nc2n[nH]c(C)c2c(=N)n1-c1cccc(Cl)c1C | inconclusive: -40.7% |
| CCn1c(SCC(=O)c2ccccc2)nnc1-c1cc2cc(Br)ccc2o1 | inconclusive: -43.4% |
| CCC(Sc1nc2ccccc2s1)C(=O)Nc1nnc(C)s1 (stereo not drawn) | inconclusive: -48.7% |
| COc1ccccc1C(=O)Nc1ccc2c3c(cccc13)CC2 | inactive: -8.83% |
| COc1ccc(NC(=S)/N=C(\N)Nc2nc(C)c3ccc(C)cc3n2)cc1 | inactive: -34.9% |
| COc1ccc(S(=O)(=O)N2CCN(Cc3ccc(Cl)cc3)CC2)cc1 | inconclusive: -55.5% |
| CN(C)CCNC(=O)c1cccc(-c2cnc3c(NC=O)cc(-c4cc(F)c(F)c(F)c4)cn23)c1 | active: -75.5% |
| COc1ccc(Cl)cc1NC(=O)C(C)Sc1nc2c(c(=O)[nH]1)CCCC2 (stereo not drawn) | inactive: 12.7% |
| COc1ccc(-n2c(-c3ccco3)nc3c(cnn3-c3ccc(Cl)cc3)c2=O)cc1 | inconclusive: -59.7% |
| Cc1cc(Cl)ccc1NC(=S)NCc1ccc(S(N)(=O)=O)cc1 | inconclusive: -47.5% |
| O=C(c1cccc(C(=O)N2CCN(c3ccccc3F)CC2)c1)N1CCN(c2ccccc2F)CC1 | inactive: -15.3% |
| CC12Cc3ccc4ccccc4c3C=C1C[N+](C)(C)C2 (stereo not drawn) | inconclusive: -44.9% |
| Cc1ccc(C(=O)N/N=c2\sc3ccccc3n2C)cc1 | inactive: -31% |
| CC1CCN(c2nc(CN3CCCCC3)nc3scc(-c4ccccc4)c23)CC1 | inconclusive: -57.5% |
| Nc1cccc2c1C(=O)N(C(=O)/C=C/c1cccc(Br)c1)C2=O | inconclusive: -57.5% |

As entered above:
Under activity change, negative = inhibition, COc1cc([N+](=O)[O-])ccc1NC(=O)CC1SC(=Nc2ccc(F)cc2)N(CCC2=CCCCC2)C1=O (stereo not drawn) shows active: -98.7%
Under activity change, negative = inhibition, CSCC[C@H](NC(=O)c1ccc(OCC2CCCO2)cc1)c1nc2ccccc2[nH]1 (stereo partly drawn) shows inactive: -21.3%
Under activity change, negative = inhibition, CC(C)CNC(=S)N1CCC(c2nc(-c3ccc(F)cc3)no2)CC1 shows inconclusive: -43.3%
